Values of other authors, collected in patent publication US8785500B2, “Intranasal administration of ketamine to treat depression” (priority 2006, dated 2014).
For at least one compound, name, drawing or mass did not settle the structure.

System: outpatients with depression
Conditions: n=2,876; cited from earlier work

CN(C)CCCC1(c2ccc(F)cc2)OCc2cc(C#N)ccc21 (stereo not shown) [citalopram]
remission rates: 28%
